Results taken from the supplement of paper PMC8728848.
This is one part of the list.

Columns and labels:
Assay in all cases: glycan array binding signal (z-score within array); higher = stronger binding
Details in all cases: glycan notation: IUPAC condensed, linker removed
[1] = target: Gal3S(b1-4)[Fuc(a1-3)]Glc
In short: (§1)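 The binding signal is a Z-score computed within each array. Data were drawn from 3228 arrays in the Consortium for Functional Glycomics database, restricted to those with a known protein sequence. Scores were averaged over arrays of the same protein sequence at different concentrations or buffers, and over linkers, and negative values can be taken as non-binding.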

[2] = target: Gal3S(b1-4)[Fuc(a1-3)]Glc6S
In short: as §1

Gal3S4S(b1-4)GlcNAc = target: Gal3S4S(b1-4)GlcNAc
In short: as §1

Gal3S6S(b1-4)GlcNAc = target: Gal3S6S(b1-4)GlcNAc
In short: as §1

Gal3S6S(b1-4)GlcNAc6S = target: Gal3S6S(b1-4)GlcNAc6S
In short: as §1

Gal4S(b1-4)GlcNAc = target: Gal4S(b1-4)GlcNAc
In short: as §1

Gal4S6S(b1-4)GlcNAc = target: Gal4S6S(b1-4)GlcNAc
In short: as §1

Gal6S(b1-4)Glc = target: Gal6S(b1-4)Glc
In short: as §1

Gal6S(b1-4)Glc6S = target: Gal6S(b1-4)Glc6S
In short: as §1

Gal6S(b1-4)GlcNAc = target: Gal6S(b1-4)GlcNAc
In short: as §1

Gal6S(b1-4)GlcNAc6S = target: Gal6S(b1-4)GlcNAc6S
In short: as §1

GalNAc(a1-3)Gal = target: GalNAc(a1-3)Gal
In short: as §1

GalNAc(a1-3)GalNAc = target: GalNAc(a1-3)GalNAc
In short: as §1

[3] = target: GalNAc(a1-3)GalNAc(a1-3)Gal(a1-4)Gal(b1-4)GlcNAc
In short: as §1

GalNAc(b1-3)Gal = target: GalNAc(b1-3)Gal
In short: as §1

[4] = target: GalNAc(b1-3)Gal(a1-4)Gal(b1-4)GlcNAc
In short: as §1

[5] = target: GalNAc(b1-3)Gal(a1-4)Gal(b1-4)GlcNAc(b1-3)Gal(b1-4)Glc
In short: as §1

[6] = target: GalNAc(b1-3)Gal(a1-6)Gal(b1-4)Glc
In short: as §1

GalNAc(b1-3)GalNAc = target: GalNAc(b1-3)GalNAc
In short: as §1

GalNAc(b1-4)GlcNAc = target: GalNAc(b1-4)GlcNAc
In short: as §1

[7] = target: GalNAc(b1-4)GlcNAc(b1-2)Man(a1-3)[GalNAc(b1-4)GlcNAc(b1-2)Man(a1-6)]Man(b1-4)GlcNAc(b1-4)GlcNAc
In short: as §1

Glc(a1-4)Glc = target: Glc(a1-4)Glc
In short: as §1

Glc(a1-6)Glc(a1-6)Glc = target: Glc(a1-6)Glc(a1-6)Glc
In short: as §1

Glc(b1-4)Glc = target: Glc(b1-4)Glc
In short: as §1

Glc(b1-6)Glc = target: Glc(b1-6)Glc
In short: as §1

GlcA(b1-3)Gal = target: GlcA(b1-3)Gal
In short: as §1

GlcA(b1-3)GlcNAc = target: GlcA(b1-3)GlcNAc
In short: as §1

GlcA(b1-6)Gal = target: GlcA(b1-6)Gal
In short: as §1

[8] = target: GlcNAc(a1-3)Gal(b1-4)GlcNAc
In short: as §1

[9] = target: GlcNAc(a1-4)Gal(b1-3)GlcNAc
In short: as §1

B1: Flo10 (Saccharomyces cerevisiae), P36170 (protein)
chain: MPVAARYIFLTGLFLLSVANVALGTTEACLPAGEKKNGMTINFYQYSLKDSSTYSNPSYMAYGYADAEKLGSVSGQTKLSIDYSIPCNGASDTCACSDDDATEYSASQVVPVKRGVKLCSDNTTLSSKTEKRENDDCDQGAAYWSSDLFGFYTTPTNVTVEMTGYFLPPKTGTYTFGFATVDDSAILSVGGNVAFECCKQEQPPITSTDFTINGIKPWNADAPTDIKGSTYMYAGYYYPIKIVYSNAVSWGTLPVSVVLPDGTEVNDDFEGYVFSFDDNATQAHCSVPNPAEHARTCVSSATSSWSSSEVCTECTETESTSYVTPYVTSSSWSSSEVCTECTETESTSTSTPYVTSSSSSSSEVCTECTETESTSYVTPYVSSSTAAANYTSSFSSSSEVCTECTETESTSTSTPYVTSSSWSSSEVCTECTETESTSYVTPYVSSSTAAANYTSSFSSSSEVCTECTETESTSTSTPYVTSSSSSSSEVCTECTETESTSYVTPYVSSSTAAANYTSSFSSSSEVCTECTETESTSTSTPYVTSSSWSSSEVCTECTETESTSYVTPYVSSSTAAANYTSSFSSSSEVCTECTETESTSTSTPYATSSTGTATSFTASTSNTMTSLVQTDTTVSFSLSSTVSEHTNAPTSSVESNASTFISSNKGSVKSYVTSSIHSITPMYPSNQTVTSSSVVSTPITSESSESSASVTILPSTITSEFKPSTMKTKVVSISSSPTNLITSYDTTSKDSTVGSSTSSVSLISSISLPSSYSASSEQIFHSSIVSSNGQALTSFSSTKVSSSESSESHRTSPTTSSESGIKSSGVEIESTSTSSFSFHETSTASTSVQISSQFVTPSSPISTVAPRSTGLNSQTESTNSSKETMSSENSASVMPSSSATSPKTGKVTSDETSSGFSRDRTTVYRMTSETPSTNEQTTLITVSSCESNSCSNTVSSAVVSTATTTINGITTEYTTWCPLSATELTTVSKLESEEKTTLITVTSCESGVCSETASPAIVSTATATVNDVVTVYSTWSPQATNKLAVSSDIENSASKASFVSEAAETKSISRNNNFVPTSGTTSIETHTTTTSNASENSDNVSASEAVSSKSVTNPVLISVSQQPRGTPASSMIGSSTASLEMSSYLGIANHLLTNSGISIFIASLLLAIV
[1]
  glycan array binding signal (z-score): 0.174
[2]
  glycan array binding signal (z-score): -0.042
Gal3S4S(b1-4)GlcNAc
  glycan array binding signal (z-score): -0.551
Gal3S6S(b1-4)GlcNAc
  glycan array binding signal (z-score): -0.234
Gal3S6S(b1-4)GlcNAc6S
  glycan array binding signal (z-score): -0.023
Gal4S(b1-4)GlcNAc
  glycan array binding signal (z-score): -0.526
Gal4S6S(b1-4)GlcNAc
  glycan array binding signal (z-score): -0.042
Gal6S(b1-4)Glc
  glycan array binding signal (z-score): -0.433
Gal6S(b1-4)Glc6S
  glycan array binding signal (z-score): -0.635
Gal6S(b1-4)GlcNAc
  glycan array binding signal (z-score): 0.486
Gal6S(b1-4)GlcNAc6S
  glycan array binding signal (z-score): -0.171
GalNAc(a1-3)Gal
  glycan array binding signal (z-score): -0.643
GalNAc(a1-3)GalNAc
  glycan array binding signal (z-score): 0.641
[3]
  glycan array binding signal (z-score): 1.74
GalNAc(b1-3)Gal
  glycan array binding signal (z-score): -0.02
[4]
  glycan array binding signal (z-score): -0.086
[5]
  glycan array binding signal (z-score): 0.051
[6]
  glycan array binding signal (z-score): -0.154
GalNAc(b1-3)GalNAc
  glycan array binding signal (z-score): 0.005
GalNAc(b1-4)GlcNAc
  glycan array binding signal (z-score): 0.528
[7]
  glycan array binding signal (z-score): -0.5
Glc(a1-4)Glc
  glycan array binding signal (z-score): -0.77
Glc(a1-6)Glc(a1-6)Glc
  glycan array binding signal (z-score): 0.586
Glc(b1-4)Glc
  glycan array binding signal (z-score): -0.429
Glc(b1-6)Glc
  glycan array binding signal (z-score): -0.68
GlcA(b1-3)Gal
  glycan array binding signal (z-score): -0.688
GlcA(b1-3)GlcNAc
  glycan array binding signal (z-score): -0.631
GlcA(b1-6)Gal
  glycan array binding signal (z-score): 0.66
[8]
  glycan array binding signal (z-score): 0.846
[9]
  glycan array binding signal (z-score): 0.028
